From PubChem BioAssay record AID1159506 (NCATS, 2015).

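Genome-wide siRNA knockdown in TC32 Ewing sarcoma cells, comparing luciferase light from an NR0B1-promoter reporter with a CMV-promoter reporter 48 hours after transfection.
Each siRNA was applied at 20 nM.
A z-score of the log NR0B1-over-CMV signal, less the median of siRNAs with the same seed; more negative means a stronger specific loss of the NR0B1 reporter.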

The strongest results of the screen are mostly left out here.
Sequences are the guide (antisense) strand, without overhang.

| Sequence | gene | seed-corrected z-score |
|---|---|---|
| `UCUUGGAUCACUAAAGAUG` | ADAMTSL1 | 0.4047 |
| `UCUGACUCACCCAUCCUAC` | RPS21 | 1.732 |
| `UUGGUAGCCUCGAAAGCUG` | C1QTNF3 | -1.488 |
| `UUUGCAGUAAGGGCAAGUC` | RNF175 | -0.3703 |
| `UUCUUCUUCAUGCGACGGC` | NOL4L | 0.8111 |
| `UCAGAGUCCAUUUCAAUGC` | TMEM187 | 0.8118 |
| `UUUGUAGUAUCAAUCAUAC` | GBP6 | 0.6053 |
| `UUUCGUUCUGACCCAUUUC` | C9orf139 | -0.9092 |
| `UAGAUUUUACCCUUACUGU` | CDSN | 2.201 |
| `UCUGCUAUAAGACAAUCGC` | NRG3 | -0.1705 |
| `UUUGGAUCAAUGUUCCAAG` | ZG16 | 0.4041 |
| `GGAUGUAGAAUAAAUAAGA` | TNFRSF6B | 0.4426 |
| `UCUCGGAUCUCCAAAGCGC` | KLC3 | 0.1888 |
| `UCUCUCAGCUCUUAGAGGC` | PRSS33 | -0.6442 |
| `UGUAUUGUGACCAAAGAUC` | ZNF28 | -1.921 |
| `AAAGUUGUCGUUCCCACUG` | HNRNPA1P4 | -0.3454 |
| `UCGCUGUACUAUGAAGUUC` | CTNNAL1 | 0.5111 |
| `AAAGGACCUAAGCAGCAGG` | PHLDA3 | 2.495 |
| `UUCAUGCUUCCUUAAAUAG` | IFI27L1 | -0.204 |
| `UUGAUCGUAAACUACAACC` | DUSP16 | -0.1852 |
| `UUAGGUAAUUCUUGGAGUC` | SPATA1 | 0.4397 |
| `AUAGUACUAGCAUUUGAGC` | FOXO1 | -0.04014 |
| `UUACAUAGUAUCGAUAAUG` | PSMD6 | -1.079 |
| `AUAGCAGAAAGUGCACCGC` | COL6A6 | 1.726 |
| `UUCUGCAUGAUAUUCAUCA` | ZSWIM4 | -0.9696 |
| `AAUAAGAACAUGAGUGAGC` | TMEFF1 | 0.6445 |
| `UAUCCUUCUAUCUUCACAG` | CAPZA1 | 0.004396 |
| `UUCCUAAUGGUGCUCGUCG` | EFHB | -0.6431 |
| `UGCAGAUUGGGUAAACUGA` | ERGIC1 | -0.445 |
| `AUCCCUGAUAGUGUCGAGC` | PSMD8 | -0.575 |
| `CGUCUAGUUGCAGUAGUUC` | INS | -0.02328 |
| `AUAUCGUUCUAUAUAAUGC` | MRPS5 | 0.3497 |
| `AAAUGGAUAACAGUCUCUG` | SLC25A36 | -0.4655 |
| `UACUGGAAGUGGACGAUGU` | OAZ2 | -0.7448 |
| `UUGUGGAUCUUUAAAUUCU` | ZIC1 | 0.1911 |
| `AGAAUUUGAACUCUGACCC` | LINC00173 | 1.737 |
| `UUUUCAACCUGAUAAAUAC` | BTG4 | 0.8431 |
| `UUUCUUUUCCACGAAGAGG` | MRPL33 | 0.2453 |
| `AAAUAGUCAGGAAUAGAUG` | TDRD3 | 1.031 |
| `UCUUGCAAUAUCCAGAAAC` | MED28 | 0.9903 |
| `CUUCCUUUUGCUCCGCUGC` | LOC651337 | -0.9847 |
| `UAGUUGAAAUCGGACAUGC` | CPZ | 0.3878 |
| `UUCCAGAUCUGAGCACUUC` | SNTN | 0.3117 |
| `UAGGUGUUAGUCCCAGUUC` | C2 | -0.173 |
| `AUAGUUCACACGUCCCAUG` | GLB1 | 0.1331 |
| `AGUUUUAACAGGCUCAAGC` | UTP14A | 0.3314 |
| `AUCCUUCCGAAGCAUGUCU` | TGIF2 | -1.639 |
| `UCGGUAAAAGUGCUUAAGC` | MAD2L1BP | 0.2149 |
| `AUUGUUGAUAUUGAGAUGC` | LINGO2 | 0.338 |
| `ACUGAUAGAACAAUUUUCC` | GTSCR1 | 0.5412 |
| `UUAUUCGUCCCUCUAAGCC` | SHROOM4 | -0.4693 |
| `UUUGAUUAGCUGCAAAGUG` | OLFML3 | 0.1514 |
| `UCAGAGUUUCGAAGCAUGC` | NDUFV2 | -1.202 |
| `AAAGAGUCUCCGGAACUGC` | CAPNS1 | 0.4781 |
| `UUCUUGAUUGCAGUUGAGG` | AZI2 | -0.4622 |
| `AAUGUGUUGGUUUCAGGCU` | NAT8L | 1.83 |
| `AAAUGGAUAAGCAGGACUG` | ARMCX5 | 0.7254 |
| `UCUCGAAUGAAAGGGAUCU` | SOX4 | -0.8333 |
| `UUUUAAUUAUGGUCUUCUC` | PDCD2L | -0.04018 |
| `UCUUCGUUCAUUAUGAGGC` | HEPHL1 | 1.005 |
| `UAUUGAUAUACGAUGAAAC` | HSD17B13 | 0.5527 |
| `UUCCCAAAUAUGAUCAGGG` | NPSR1 | -1.039 |

The last 4 entries again:

* UUUUAAUUAUGGUCUUCUC against PDCD2L : seed-corrected z-score -0.04018
* UCUUCGUUCAUUAUGAGGC against HEPHL1 : seed-corrected z-score 1.005
* UAUUGAUAUACGAUGAAAC against HSD17B13 : seed-corrected z-score 0.5527
* UUCCCAAAUAUGAUCAGGG against NPSR1 : seed-corrected z-score -1.039